Data taken from patent US6426229B1, “Chelating agent and detergent comprising the same” (Mitsubishi Rayon Co., Ltd., priority 1995, dated 2002).

System: activated sludge
Assay: Biodegradability test, amended SCAS method (302A Modified SCAS Test, OECD guideline)
Settings: supernatant liquid

O=C([O-])CN(CCN(CC(=O)[O-])CC(=O)[O-])CC(=O)[O-].[Na+].[Na+].[Na+].[Na+] [Tetrasodium ethylenediaminetetraacetate]
Retention rate by HPLC (%): 100% | Retention rate by TOC (%): 100%
